Laboratory results: PubChem BioAssay AID686943 (Drosophila RNAi Screening Center, 2013)

Purpose: 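Fly genes whose loss alters ERK activation after insulin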 (primary screen)
Cells: Drosophila S2R+ haemocyte-like cells expressing YFP-tagged ERK (Rolled)
Reagents: long dsRNA against Drosophila genes
Conditions: insulin stimulation versus unstimulated cells; dose and duration not given
Read-out: 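Antibody staining for doubly phosphorylated ERK divided by ERK-YFP signal, as plate z-scores, in insulin-treated and untreated cells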
Direction: replicate 1, z-score of dpERK with insulin and replicate 2, z-score of dpERK with insulin: higher = more active ERK per ERK-YFP after insulin
The screen tested about 23,000 reagents; below is a random part of those that have a named target and a result. 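Extra replicates exist only for a retested subset of genes; insulin dose and duration not given; both raised and lowered dpERK matter.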 A plus sign joins genes that one reagent is predicted to hit. Not all columns of the deposit are shown. Not given: the amount of reagent, the time to read-out.

Knock-down of CG9662 [DRSC00723] came out at: replicate 1, z-score of dpERK with insulin 0.04; replicate 2, z-score of dpERK with insulin 0.57.
Ir76a (Ionotropic receptor 76a) [DRSC10987] showed replicate 1, z-score of dpERK with insulin 0.05; replicate 2, z-score of dpERK with insulin -0.08.
Against Usp47 (Ubiquitin specific protease 47) [DRSC11313], the values are replicate 1, z-score of dpERK with insulin 0.82; replicate 2, z-score of dpERK with insulin 0.01.
Against S-Lap3 (Sperm-Leucylaminopeptidase 3) [DRSC10956], the values are replicate 1, z-score of dpERK with insulin 0.52; replicate 2, z-score of dpERK with insulin 0.55.
Against CG15580 [DRSC12266] the deposit lists replicate 1, z-score of dpERK with insulin -0.11; replicate 2, z-score of dpERK with insulin 1.26.
After knock-down of Trf (TBP-related factor) [DRSC03462], the record shows replicate 1, z-score of dpERK with insulin 0.59; replicate 2, z-score of dpERK with insulin 0.4.
Ccdc58 + CG34116 [DRSC10105] scored replicate 1, z-score of dpERK with insulin 1.36; replicate 2, z-score of dpERK with insulin 0.18.
For CG14020 [DRSC02350], the values are replicate 1, z-score of dpERK with insulin 0.02; replicate 2, z-score of dpERK with insulin 0.2.
rin (rasputin) [DRSC17045] showed replicate 1, z-score of dpERK with insulin 1.14; replicate 2, z-score of dpERK with insulin 0.3.
With knock-down of CG15642 [DRSC19678], the record shows replicate 1, z-score of dpERK with insulin 0.4; replicate 2, z-score of dpERK with insulin 0.07.
Ice1 (Interacts with the C terminus of ELL 1) [DRSC04191] gave replicate 1, z-score of dpERK with insulin 1.11; replicate 2, z-score of dpERK with insulin 1.78.
Depletion of CG8369 [DRSC16413] came out at: replicate 1, z-score of dpERK with insulin -0.43; replicate 2, z-score of dpERK with insulin -0.24.
With knock-down of CG4872 [DRSC19921], the record shows replicate 1, z-score of dpERK with insulin 0.07; replicate 2, z-score of dpERK with insulin -0.06.
kumpel (kin of rumpel) [DRSC14883] showed replicate 1, z-score of dpERK with insulin -0.03; replicate 2, z-score of dpERK with insulin 0.
Silencing of kumpel (kin of rumpel) [DRSC16459] gave: replicate 1, z-score of dpERK with insulin -0.17; replicate 2, z-score of dpERK with insulin 0.
kumpel (kin of rumpel) [DRSC16460] showed replicate 1, z-score of dpERK with insulin 0.3; replicate 2, z-score of dpERK with insulin 0.
Against kumpel (kin of rumpel) [DRSC16461] the deposit lists replicate 1, z-score of dpERK with insulin -0.44; replicate 2, z-score of dpERK with insulin -0.43.
kumpel (kin of rumpel) [DRSC16462] scored replicate 1, z-score of dpERK with insulin 0.39; replicate 2, z-score of dpERK with insulin 0.17.
With knock-down of kumpel (kin of rumpel) [DRSC16463], the record shows replicate 1, z-score of dpERK with insulin 0.77; replicate 2, z-score of dpERK with insulin 0.01.
Silencing of CG15484 [DRSC02494] came out at: replicate 1, z-score of dpERK with insulin 0.48; replicate 2, z-score of dpERK with insulin -1.45.
Against CG15484 [DRSC22836], the entry reads replicate 1, z-score of dpERK with insulin -0.71; replicate 2, z-score of dpERK with insulin -0.32.
Against CG31759 [DRSC01230], the entry reads replicate 1, z-score of dpERK with insulin 0.52; replicate 2, z-score of dpERK with insulin 0.05.
With knock-down of CG3520 [DRSC04383] the results were replicate 1, z-score of dpERK with insulin -0.5; replicate 2, z-score of dpERK with insulin -0.16.
For CG3815 [DRSC18324], the entry reads replicate 1, z-score of dpERK with insulin 0.13; replicate 2, z-score of dpERK with insulin 0.39.
With knock-down of cona (corona) [DRSC16281], the screen gave replicate 1, z-score of dpERK with insulin 0.82; replicate 2, z-score of dpERK with insulin 0.94.

In a second layout: results already given
kumpel (kin of rumpel) [DRSC16460]
- replicate 1, z-score of dpERK with insulin: 0.3
- replicate 2, z-score of dpERK with insulin: 0

kumpel (kin of rumpel) [DRSC16461]
- replicate 1, z-score of dpERK with insulin: -0.44
- replicate 2, z-score of dpERK with insulin: -0.43

kumpel (kin of rumpel) [DRSC16462]
- replicate 1, z-score of dpERK with insulin: 0.39
- replicate 2, z-score of dpERK with insulin: 0.17

kumpel (kin of rumpel) [DRSC16463]
- replicate 1, z-score of dpERK with insulin: 0.77
- replicate 2, z-score of dpERK with insulin: 0.01

More records follow.
Against Vps33B (Vacuolar protein sorting 33B) [DRSC15722] the deposit lists replicate 1, z-score of dpERK with insulin 1.12; replicate 2, z-score of dpERK with insulin 0.03.
Silencing of DENR (Density regulated protein) [DRSC20151] resulted in: replicate 1, z-score of dpERK with insulin -0.22; replicate 2, z-score of dpERK with insulin -1.05.
Pgant8 (Polypeptide N-Acetylgalactosaminyltransferase 8) [DRSC10801] gave replicate 1, z-score of dpERK with insulin 0.34; replicate 2, z-score of dpERK with insulin 0.11.
cindr (CIN85 and CD2AP related) [DRSC14126] gave replicate 1, z-score of dpERK with insulin 0.2; replicate 2, z-score of dpERK with insulin -0.92.
With knock-down of cindr (CIN85 and CD2AP related) [DRSC14298], the record shows replicate 1, z-score of dpERK with insulin -0.67; replicate 2, z-score of dpERK with insulin 0.
Against CG5861 [DRSC02907] the deposit lists replicate 1, z-score of dpERK with insulin 0.68; replicate 2, z-score of dpERK with insulin 0.03.
Knock-down of sl (small wing) [DRSC20377] came out at: replicate 1, z-score of dpERK with insulin 1.03; replicate 2, z-score of dpERK with insulin 1.36.
After knock-down of sl (small wing) [DRSC21782] the results were replicate 1, z-score of dpERK with insulin -0.57; replicate 2, z-score of dpERK with insulin -0.98.
Against cysu (Curly Su) [DRSC15902], the values are replicate 1, z-score of dpERK with insulin 0.54; replicate 2, z-score of dpERK with insulin -0.06.
Silencing of CG12723 [DRSC19499] resulted in: replicate 1, z-score of dpERK with insulin 0.53; replicate 2, z-score of dpERK with insulin 0.05.
Knock-down of wisp (wispy) [DRSC19703] resulted in: replicate 1, z-score of dpERK with insulin 0.66; replicate 2, z-score of dpERK with insulin 0.9.
After knock-down of Spase25 (Spase 25-subunit) [DRSC19776], the record shows replicate 1, z-score of dpERK with insulin 0.51; replicate 2, z-score of dpERK with insulin 0.38.
CG13042 [DRSC09923] showed replicate 1, z-score of dpERK with insulin -0.5; replicate 2, z-score of dpERK with insulin 1.26.
With knock-down of CG7916 [DRSC01901] the results were replicate 1, z-score of dpERK with insulin 0.76; replicate 2, z-score of dpERK with insulin -0.49.
Silencing of lap (like-AP180) [DRSC12628] gave: replicate 1, z-score of dpERK with insulin 0.61; replicate 2, z-score of dpERK with insulin 0.23.
